Source: PubChem BioAssay AID504834 (National Center for Advancing Translational Sciences (NCATS), 2011)
Screen size: about 320,000 compounds; about 22,000 (6.9%) were called active. This list was built around the results that the source calls inconclusive (neither active nor inactive); the mix of calls is not that of the screen. Calls follow the shape of the dose curve; as a rule, active = well fitted inhibition curve with a large enough effect; inconclusive = small, poorly fitted or top-dose-only effect, or another doubt; inactive = no such curve, though single readings can be large or run the other way. A potency beside an inconclusive call is a rough fit, not a confirmed value.
Potency is read from the fitted curve at half-maximal effect.

Assay: Primary qHTS for delayed death inhibitors of the malarial parasite plastid, 96 hour incubation
Conditions: P. falciparum luciferase reporter growth; series mostly up to 28.7 µM
In short: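 Readout is luminescence from an integrated firefly luciferase in P. falciparum. Red cells, 2% hematocrit and 0.05% parasitemia final, were cultured with compound through two parasite generations (96 hours) at 37 C, 5% CO2.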
With `COC(=O)C(C)(C)ONC(=O)Nc1ccccc1Cl` the Potency was “inactive”. With `O=C1C2C3C=CC(C4CC34)C2C(=O)N1/N=C/c1ccc(-c2ccc(F)cc2[N+](=O)[O-])o1` (stereo not drawn) the Potency was active: 4.65 µM. For `Cc1ccc(-c2nc(-c3ccccc3)no2)cc1`, the Potency was “inactive”. In the case of `CCn1c(CC(=O)Nc2cccc(Cl)c2Cl)nnc1SCCOc1ccc(OC)cc1`, the Potency is reported as inconclusive: 18.5 µM [inhibitor, single point]. In the case of `COc1ccc(/C(=N\Nc2ccccc2C(=O)O)c2ccccc2)cc1`, the Potency is reported as inconclusive: 1.31 µM [inhibitor, single point]. With `Cc1cccc(N2C(=O)NC(=O)/C(=C\c3cccn3-c3ccc(Cl)cc3)C2=O)c1` the Potency was “inactive”. With `Cc1ccc(/C=C2/NC(=O)N(Cc3ccccc3F)C2=O)o1` the Potency was inconclusive: 18.5 µM [inhibitor, single point]. In the case of `O=C(O/N=C1\CCCc2ccccc21)c1cccs1`, the Potency is reported as “inactive”. For `CC(C)NC(=O)C(=O)Nc1cc2c3c(c1)CCC(=O)N3CCC2`, the Potency was inconclusive: 16.5 µM [inhibitor, single point]. For `C=C1C(=O)O[C@H]2C[C@@H](C)[C@@H]3C=CC(=O)[C@@]3(C)C[C@H]12`, the Potency was active: 8.28 µM. With `CCOc1ccccc1NC(=O)CN(c1nccs1)S(=O)(=O)c1ccc(N)cc1` the Potency was inconclusive: 3.7 µM [inhibitor, partial curve]. For `O=C(c1cccnc1)N1CCN(c2ccccc2Cl)CC1`, the Potency was inconclusive: 0.37 µM [inhibitor, full curve, poor fit]. For `COc1ccc(N2CCN(S(=O)(=O)CCNC(=O)C3CCCCC3)CC2)cc1`, the Potency was “inactive”. In the case of `Cc1ccc(C(=O)NC2CCCC2)s1`, the Potency is reported as “inactive”. For `CCC(C)c1ccccc1NC(=O)c1cc2cccc([N+](=O)[O-])c2[nH]1` (stereo not drawn), the Potency was active: 2.94 µM. With `Cc1cc(C)n(-c2ccc(C(=O)Nc3ccc(C)c(S(=O)(=O)N4CCOCC4)c3)cc2)n1` the Potency was inconclusive: 0.738 µM [inhibitor, partial curve, poor fit]. In the case of `COC(=O)c1cc(NC2c3ccccc3C(=O)N2c2cccnc2)cc(C(=O)OC)c1` (stereo not drawn), the Potency is reported as inconclusive: 18.5 µM [inhibitor, single point]. With `CC(C)c1ccc(CNc2ccc3c(c2)ncn3C)cc1` the Potency was “inactive”. With `NC(=O)Cn1nnc(-c2ccc(CN3CCCCC3)cc2)n1` the Potency was inconclusive: 18.5 µM [inhibitor, single point]. For `COc1ccc(C)cc1Nc1n[n+](-c2ccccc2)c(-c2cc(OC)c(OC)cc2Br)s1`, the Potency was active: 9.28 µM. In the case of `O=S(=O)(NC1c2cccc3cccc(c23)C1N1CCNCC1)c1ccccc1` (stereo not drawn), the Potency is reported as “inactive”. For `CC(C)N1CCC(N2CCN(Cc3ccc(-c4ccccc4Cl)o3)CC2CCO)CC1` (stereo not drawn), the Potency was “inactive”. With `Cc1c(NC(=O)C(CC(=O)O)NCc2ccco2)c(=O)n(-c2ccccc2)n1C` (stereo not drawn) the Potency was inconclusive: 0.522 µM [inhibitor, full curve, poor fit]. In the case of `CCCN1C(=O)c2ccccc2NC1c1ccc(OC)c(CSc2ccccn2)c1` (stereo not drawn), the Potency is reported as active: 10.4 µM. With `COc1ccc(S(=O)(=O)NN=C2CCCCC2)cc1` the Potency was “inactive”. For `O=C(CCCN1C(=O)/C(=C/c2cccs2)SC1=S)NNC(=O)c1ccccc1O`, the Potency was active: 3.29 µM. With `COc1ccc2c(Cl)c(C(=O)NCCCn3ccnc3)sc2c1Cl` the Potency was inconclusive: 10.4 µM [inhibitor, single point]. With `COc1ccccc1NS(=O)(=O)c1cc(C(=O)NCCN2CCOCC2)ccc1Cl` the Potency was active: 10.4 µM. In the case of `CCC(OC(=O)c1nsc(Cl)c1Cl)C(=O)NC(C)(C)C` (stereo not drawn), the Potency is reported as inconclusive: 11.7 µM [inhibitor, single point]. With `O=C(COC(=O)c1cc([N+](=O)[O-])ccc1N1CCOCC1)c1ccc(OC(F)F)cc1OC(F)F` the Potency was inconclusive: 9.28 µM [inhibitor, single point]. For `O=C1CN(C(=O)CSc2nnnn2-c2ccc(Cl)cc2)c2ccccc2N1`, the Potency was “inactive”. For `COCCCNC(=O)c1ccc2c(c1)CCN2S(C)(=O)=O`, the Potency was “inactive”. With `O=C(Nc1ccc(F)cc1)c1cccc(N2C(=O)C3C4C=CC(C5CC45)C3C2=O)c1` (stereo not drawn) the Potency was inconclusive: 14.7 µM [inhibitor, partial curve, poor fit]. For `CCCC(C(=O)Nc1cc(S(=O)(=O)N2CCOCC2)ccc1OC)c1ccccc1` (stereo not drawn), the Potency was inconclusive: 4.15 µM [inhibitor, partial curve]. In the case of `O=C(COc1cc(F)ccc1[N+](=O)[O-])Nc1ccc(N2CCOCC2)cc1`, the Potency is reported as inconclusive: 4.15 µM [inhibitor, partial curve, poor fit]. For `COc1ccccc1C(=O)NNC(=O)c1nn(Cc2ccccc2)c(=O)c2ccccc12`, the Potency was inconclusive: 18.5 µM [inhibitor, single point]. With `O=c1ccn(-c2cccc(C(F)(F)F)c2)nc1-c1ccn(-c2cccc(Cl)c2)n1` the Potency was inconclusive: 1.17 µM [inhibitor, partial curve, poor fit]. In the case of `COc1ccc(NC(=O)CN(C)CC(=O)Nc2sc3c(c2C(N)=O)CCC3)cc1`, the Potency is reported as inconclusive: 14.7 µM [inhibitor, single point]. With `CCc1ccccc1NC(=S)N(CCOC)C(C)c1ccco1` (stereo not drawn) the Potency was “inactive”. For `CC(C)c1nc2sc3c(c2c(=O)n1N)CC(C)(C)OC3`, the Potency was active: 4.65 µM. With `O=C(c1ccc(F)cc1)C1CCN(C(=S)NCC2CCCO2)CC1` (stereo not drawn) the Potency was inconclusive: 18.5 µM [inhibitor, partial curve, poor fit]. For `COCCN(C(=O)CSc1nc2ccccc2c(=O)n1C(C)COC)c1c(N)n(Cc2ccccc2)c(=O)[nH]c1=O` (stereo not drawn), the Potency was “inactive”. For `Cc1cccc(NC(=O)C2CCN(S(=O)(=O)c3cccc4nsnc34)CC2)n1`, the Potency was “inactive”. For `COC(=O)/C(=N/Nc1ccc(C)cc1)N1CCCc2ccccc21`, the Potency was active: 11.7 µM. For `O=C(CSc1ncn[nH]1)Nc1ccccc1C(=O)O`, the Potency was active: 2.94 µM. With `COc1cccc(-c2nc(CS(=O)(=O)CC(=O)NCc3ccc(Cl)cc3)c(C)o2)c1` the Potency was inconclusive: 10.4 µM [inhibitor, partial curve]. With `Cc1cc(N)n(-c2ccc(Cl)cc2)n1` the Potency was inconclusive: 1.47 µM [inhibitor, single point]. With `COc1ccc(NC(=S)Nc2cccc3cnccc23)cc1` the Potency was “inactive”. In the case of `COc1ccc(NS(=O)(=O)c2ccc(NC(=O)c3ccccc3)cc2)nn1`, the Potency is reported as inconclusive: 0.522 µM [inhibitor, full curve, poor fit]. With `COc1cc(NC(=O)C2CCN(S(=O)(=O)c3cccc4nonc34)CC2)cc(OC)c1` the Potency was “inactive”. With `CC(=O)C(Sc1nc(N(C)C)nc(N(C)C)n1)C(=O)Nc1ccccc1` (stereo not drawn) the Potency was “inactive”. With `Cn1c(SCC(=O)N2CCCCC2)nc2c([nH]c3ccccc32)c1=O` the Potency was inconclusive: 11.7 µM [inhibitor, partial curve]. For `COc1ccc(C(C(=O)NC2CCCC2)N(CCCO)C(=O)c2snc(C(N)=O)c2N)cc1` (stereo not drawn), the Potency was “inactive”. In the case of `O=C(CN1C(=O)c2ccccc2S1(=O)=O)Nc1ccccc1`, the Potency is reported as inconclusive: 0.0029 µM [inhibitor, full curve, poor fit]. In the case of `FC(F)(F)c1cc(C(F)(F)F)c2ccc(N3CCN(c4ccc(Cl)cc4)CC3)nc2n1`, the Potency is reported as “inactive”. With `COc1ccc(/C=C2\SC(=S)N(CCCCCC(=O)Nc3cc(C)on3)C2=O)cc1OC` the Potency was inconclusive: 1.85 µM [inhibitor, partial curve, poor fit]. With `CCCCCC(=O)Nc1ccc2oc(-c3ccncc3)nc2c1` the Potency was inconclusive: 18.5 µM [inhibitor, single point]. With `CC1(C)C2CCC1(CS(=O)(=O)N1CCN(c3ccc(F)cc3)CC1)C(=O)C2` (stereo not drawn) the Potency was “inactive”. With `COCCNC(=O)C(c1ccc(C)cc1)N(C(=O)CCC(=O)Nc1ccccn1)c1ccc(F)cc1` (stereo not drawn) the Potency was “inactive”. For `NC(=O)c1cc([N+](=O)[O-])ccc1NCc1ccc(O)cc1`, the Potency was inconclusive: 18.5 µM [inhibitor, single point]. With `O/N=C(\C[n+]1ccccc1)c1ccc(Br)cc1` the Potency was inconclusive: 16.5 µM [inhibitor, single point]. With `COc1ccc(/C=C(/NC(=O)c2ccccc2OC)C(=O)Nc2ccc(C(=O)O)cc2)cc1` the Potency was active: 9.28 µM. For `Cc1ccc2c(c1)=NC(=O)/C(=C/c1c(O)[nH]c(=O)[nH]c1=O)C=2`, the Potency was “inactive”. For `CCN(CC)S(=O)(=O)c1cccc(C(=O)N[C@H](C(=O)Nc2nc3ccccc3s2)C(C)C)c1`, the Potency was inconclusive: 3.29 µM [inhibitor, single point]. For `COC(=O)C1=C(NC(=O)COc2ccc(Cl)cc2Cl)CCS1`, the Potency was “inactive”. With `Cc1cccc(C(=O)O/N=C(\N)c2ccc(Br)cc2)c1` the Potency was inconclusive: 10.4 µM [inhibitor, single point]. For `CCn1c(SCC(=O)N(C)CC(=O)Nc2ccc(F)c(F)c2F)nnc1-c1ccco1`, the Potency was “inactive”. With `Cc1ccc(C)c(OCc2cc(C(=O)NC(C)c3cnn(C)c3)no2)c1` (stereo not drawn) the Potency was inconclusive: 13.1 µM [inhibitor, single point]. For `N#Cc1c(C#N)c(-c2ccccc2)n(-c2ccccc2)c1N`, the Potency was inconclusive: 4.15 µM [inhibitor, full curve]. With `O=C(C[n+]1cccc(CNC(=O)c2ccc(OC(F)F)cc2)c1)Nc1ccccc1Cl` the Potency was inconclusive: 3.7 µM [inhibitor, partial curve, poor fit]. In the case of `COc1ccc(NC(=O)N2CCc3ccccc3C2)cc1`, the Potency is reported as inconclusive: 18.5 µM [inhibitor, single point]. With `COc1ccc(C(=O)N(CC2CCCO2)C(C(=O)NC2CCCC2)c2ccc(C)cc2)cc1OC` (stereo not drawn) the Potency was inconclusive: 9.28 µM [inhibitor, partial curve]. With `O=C(O)COCC(=O)NCc1csc2ccccc12` the Potency was “inactive”.
